Values quoted from earlier work in patent US11642346B2, “Combination therapy for treating cancer” (Epizyme, Inc., priority 2017, dated 2023).

Tested on: G401 cell line
Settings: read-out: Long term proliferation IC50; G401 malignant rhabdoid tumor cell line; cited from earlier work

CCN(c1cc(-c2ccc(CN3CCOCC3)cc2)cc(C(=O)NCc2c(C)cc(C)[nH]c2=O)c1C)C1CCOCC1 [tazemetostat]
IC50: 135 nM
